Measurements reported in patent US20100331233A1, “CRYSTAL OF XPA AND ERCC1 COMPLEX AND USES THEREOF” (priority 2007, published 2010).
Results are given in words; binding and its absence hold for the method and conditions named. Some binding calls cover weakened binding; strength is not graded here.

Biological target: T1, ERCC1 (construct of the high throughput fluorescence polarization screen) (Homo sapiens (Human)) (UniProt P07992)
T1 sequence: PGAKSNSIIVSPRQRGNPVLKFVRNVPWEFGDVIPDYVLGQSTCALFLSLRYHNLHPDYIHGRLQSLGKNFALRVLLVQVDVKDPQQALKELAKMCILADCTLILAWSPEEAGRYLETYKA
Assay: fluorescence polarization binding assay used for small molecule screening

binding: binds
Binder: KIIDTGGGFILEEE (labeled with 6-carboxyfluorescein (position not given)) [XPA 14mer peptide labeled with 6-carboxyfluorescein]
